Test results reported in article doi:10.1101/2023.08.16.553498.
These are yes or no findings as the source states them, for the method shown. Binding can be weak; no strength is given. For some of these results: Sequences can lack the tags named with a protein. For some of these results: In cells and extracts the contact can be indirect.

Protein sequences, listed by entry. Tags and fused reporters are not part of them. Lines headed by an entry give the natural chain unless they say otherwise; changes in a name come on top.
UniProt F4I7L1: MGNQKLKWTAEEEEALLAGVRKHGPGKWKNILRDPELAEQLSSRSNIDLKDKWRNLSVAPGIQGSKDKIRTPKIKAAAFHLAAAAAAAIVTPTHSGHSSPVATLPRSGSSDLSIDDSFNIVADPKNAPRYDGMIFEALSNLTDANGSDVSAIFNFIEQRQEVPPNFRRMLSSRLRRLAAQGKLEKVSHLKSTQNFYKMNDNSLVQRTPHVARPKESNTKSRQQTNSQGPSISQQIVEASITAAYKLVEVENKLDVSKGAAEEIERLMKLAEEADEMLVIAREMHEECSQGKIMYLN
UniProt F4IEY4: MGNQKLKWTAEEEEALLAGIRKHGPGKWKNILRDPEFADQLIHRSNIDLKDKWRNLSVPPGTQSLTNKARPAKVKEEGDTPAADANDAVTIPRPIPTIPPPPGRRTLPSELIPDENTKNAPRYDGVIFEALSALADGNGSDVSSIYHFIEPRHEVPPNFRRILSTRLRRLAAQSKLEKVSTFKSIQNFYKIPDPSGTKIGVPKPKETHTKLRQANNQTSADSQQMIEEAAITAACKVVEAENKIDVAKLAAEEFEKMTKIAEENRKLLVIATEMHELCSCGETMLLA

Key:
[1] = biological target: T1, TELOMERE REPEAT BINDING protein 1 (TRB1), BiFC fusion (Arabidopsis) (UniProt Q8VWK4); assay: split reporter
T1 sequence: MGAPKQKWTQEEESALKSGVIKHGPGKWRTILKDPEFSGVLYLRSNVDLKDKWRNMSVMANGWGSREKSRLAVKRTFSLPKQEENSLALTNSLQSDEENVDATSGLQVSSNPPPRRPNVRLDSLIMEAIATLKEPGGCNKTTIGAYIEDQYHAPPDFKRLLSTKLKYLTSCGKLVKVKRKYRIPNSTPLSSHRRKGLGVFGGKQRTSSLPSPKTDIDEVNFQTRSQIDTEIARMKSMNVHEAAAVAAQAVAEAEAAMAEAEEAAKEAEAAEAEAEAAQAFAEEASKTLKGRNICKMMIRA

[2] = biological target: T2, TELOMERE REPEAT BINDING protein 2 (TRB2), BiFC fusion (Arabidopsis) (UniProt Q9FJW5); assay: split reporter
T2 sequence: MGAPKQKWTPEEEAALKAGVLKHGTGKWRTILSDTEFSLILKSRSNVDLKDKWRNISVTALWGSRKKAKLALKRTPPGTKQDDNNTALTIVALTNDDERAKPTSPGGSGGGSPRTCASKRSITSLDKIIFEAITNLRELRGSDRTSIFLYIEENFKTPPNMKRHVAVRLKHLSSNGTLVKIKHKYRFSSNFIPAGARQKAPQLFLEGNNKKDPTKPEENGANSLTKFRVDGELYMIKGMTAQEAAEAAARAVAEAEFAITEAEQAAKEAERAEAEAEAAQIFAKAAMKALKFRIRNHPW

[3] = biological target: T3, TELOMERE REPEAT BINDING protein 3 (TRB3), BiFC fusion (Arabidopsis) (UniProt Q9M2X3); assay: split reporter
T3 sequence: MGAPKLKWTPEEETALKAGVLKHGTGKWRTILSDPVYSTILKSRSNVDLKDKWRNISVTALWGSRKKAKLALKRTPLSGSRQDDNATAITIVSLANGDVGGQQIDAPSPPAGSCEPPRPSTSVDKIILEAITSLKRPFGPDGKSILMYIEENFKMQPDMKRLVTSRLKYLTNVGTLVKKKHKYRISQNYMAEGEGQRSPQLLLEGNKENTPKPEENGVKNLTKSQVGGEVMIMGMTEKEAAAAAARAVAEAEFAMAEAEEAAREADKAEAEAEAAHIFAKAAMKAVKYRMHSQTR

[4] = biological target: T4, TELOMERE REPEAT BINDING protein 2 (TRB2), yeast two-hybrid fusion (Arabidopsis) (UniProt Q9FJW5); assay: two-hybrid
T4 sequence: T2 sequence

[5] = biological target: T5, TELOMERE REPEAT BINDING protein 3 (TRB3), yeast two-hybrid fusion (Arabidopsis) (UniProt Q9M2X3); assay: two-hybrid
T5 sequence: T3 sequence

[6] = biological target: TELOMERE REPEAT BINDING protein 4 (TRB4), BiFC fusion (Arabidopsis) (UniProt F4I7L1); assay: split reporter
[7] = biological target: TELOMERE REPEAT BINDING protein 4 (TRB4), yeast two-hybrid fusion (Arabidopsis) (UniProt F4I7L1); assay: two-hybrid

| binding [4] | binding [5] | binding [7] | Sequence | binding [1] | binding [2] | binding [3] | binding [6] |
| --- | --- | --- | --- | --- | --- | --- | --- |
|  |  |  | TELOMERE REPEAT BINDING protein 4 (TRB4), BiFC fusion (from UniProt F4I7L1) | binds | binds | binds |  |
| binds | binds |  | TELOMERE REPEAT BINDING protein 4 (TRB4), yeast two-hybrid fusion (from UniProt F4I7L1) |  |  |  |  |
|  |  |  | TELOMERE REPEAT BINDING protein 5 (TRB5), BiFC fusion (from UniProt F4IEY4) | binds | binds | binds | binds |
|  |  | binds | TELOMERE REPEAT BINDING protein 5 (TRB5), yeast two-hybrid fusion (from UniProt F4IEY4) |  |  |  |  |
